The supplement of paper PMC12819154, “High-throughput peptide-centric local stability assay extends protein–ligand identification to membrane proteins, tissues and bacteria” (Nature Structural & Molecular Biology, 2025)
This is one part of the list. Most values lie at the level of the controls, where differences are scatter.

Protein sequences, listed by entry. Tags and fused reporters are not part of them. Lines headed by an entry give the natural chain unless they say otherwise; changes in a name come on top.
UniProt P76076: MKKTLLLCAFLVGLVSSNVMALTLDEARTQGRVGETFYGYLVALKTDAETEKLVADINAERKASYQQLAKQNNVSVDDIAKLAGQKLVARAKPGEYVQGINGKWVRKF
UniProt P76545: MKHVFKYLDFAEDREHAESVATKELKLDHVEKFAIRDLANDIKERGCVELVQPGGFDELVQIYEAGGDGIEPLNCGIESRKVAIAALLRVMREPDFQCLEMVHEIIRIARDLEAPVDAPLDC
UniProt P77622: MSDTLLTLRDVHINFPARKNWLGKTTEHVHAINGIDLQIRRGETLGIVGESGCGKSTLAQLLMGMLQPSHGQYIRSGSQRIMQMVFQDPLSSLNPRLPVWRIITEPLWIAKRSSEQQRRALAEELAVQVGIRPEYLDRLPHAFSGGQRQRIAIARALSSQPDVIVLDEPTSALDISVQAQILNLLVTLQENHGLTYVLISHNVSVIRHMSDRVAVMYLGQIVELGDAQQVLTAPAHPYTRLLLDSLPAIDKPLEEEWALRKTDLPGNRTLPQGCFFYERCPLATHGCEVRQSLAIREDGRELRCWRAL
UniProt P77510: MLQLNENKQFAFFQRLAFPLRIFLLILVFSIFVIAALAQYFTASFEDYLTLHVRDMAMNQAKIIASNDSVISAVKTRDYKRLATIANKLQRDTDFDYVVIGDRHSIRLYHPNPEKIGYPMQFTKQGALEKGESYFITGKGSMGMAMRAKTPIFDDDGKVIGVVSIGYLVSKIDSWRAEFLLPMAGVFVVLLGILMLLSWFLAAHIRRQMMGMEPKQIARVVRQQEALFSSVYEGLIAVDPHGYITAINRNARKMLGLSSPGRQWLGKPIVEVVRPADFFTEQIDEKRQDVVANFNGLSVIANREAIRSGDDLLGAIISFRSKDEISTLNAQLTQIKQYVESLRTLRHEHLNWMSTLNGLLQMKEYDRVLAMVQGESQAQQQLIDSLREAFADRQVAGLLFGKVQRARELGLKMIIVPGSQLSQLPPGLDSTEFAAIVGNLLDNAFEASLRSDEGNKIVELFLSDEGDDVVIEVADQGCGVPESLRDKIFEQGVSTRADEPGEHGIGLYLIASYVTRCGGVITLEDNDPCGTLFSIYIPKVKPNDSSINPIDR
UniProt P76193: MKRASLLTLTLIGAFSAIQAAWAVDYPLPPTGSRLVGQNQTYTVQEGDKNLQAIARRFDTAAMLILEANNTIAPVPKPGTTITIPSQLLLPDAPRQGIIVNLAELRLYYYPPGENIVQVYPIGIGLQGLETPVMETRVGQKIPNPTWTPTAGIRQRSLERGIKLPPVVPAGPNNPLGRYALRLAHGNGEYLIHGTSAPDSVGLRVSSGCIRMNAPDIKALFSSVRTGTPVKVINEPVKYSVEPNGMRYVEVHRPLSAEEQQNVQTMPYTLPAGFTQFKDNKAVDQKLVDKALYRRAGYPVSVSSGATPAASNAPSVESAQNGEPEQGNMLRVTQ
UniProt P77526: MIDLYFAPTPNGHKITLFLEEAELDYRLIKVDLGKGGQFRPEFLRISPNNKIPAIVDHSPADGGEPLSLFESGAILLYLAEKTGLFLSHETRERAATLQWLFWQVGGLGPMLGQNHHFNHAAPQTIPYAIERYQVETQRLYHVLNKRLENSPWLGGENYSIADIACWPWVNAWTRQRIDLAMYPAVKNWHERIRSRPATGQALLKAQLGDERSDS
UniProt P76062: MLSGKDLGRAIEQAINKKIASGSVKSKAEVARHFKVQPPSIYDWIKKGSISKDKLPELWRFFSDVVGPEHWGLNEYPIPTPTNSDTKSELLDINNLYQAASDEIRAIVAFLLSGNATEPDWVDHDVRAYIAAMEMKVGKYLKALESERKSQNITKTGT
UniProt P76251: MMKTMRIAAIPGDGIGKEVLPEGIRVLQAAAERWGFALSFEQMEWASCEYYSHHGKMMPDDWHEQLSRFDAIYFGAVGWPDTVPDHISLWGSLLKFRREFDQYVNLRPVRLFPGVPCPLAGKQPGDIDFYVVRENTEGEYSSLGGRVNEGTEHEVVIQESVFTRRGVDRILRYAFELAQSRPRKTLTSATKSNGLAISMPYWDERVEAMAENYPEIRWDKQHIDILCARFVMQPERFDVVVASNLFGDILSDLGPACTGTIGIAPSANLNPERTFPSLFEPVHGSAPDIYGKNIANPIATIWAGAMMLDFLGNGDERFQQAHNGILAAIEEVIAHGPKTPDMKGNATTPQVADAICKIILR
UniProt P76406: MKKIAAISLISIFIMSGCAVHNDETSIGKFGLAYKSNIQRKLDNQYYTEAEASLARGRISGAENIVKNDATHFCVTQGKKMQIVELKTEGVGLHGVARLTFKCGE
UniProt P76073: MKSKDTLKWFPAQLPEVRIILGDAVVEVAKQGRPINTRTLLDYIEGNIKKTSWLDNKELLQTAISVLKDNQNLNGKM
UniProt P77295: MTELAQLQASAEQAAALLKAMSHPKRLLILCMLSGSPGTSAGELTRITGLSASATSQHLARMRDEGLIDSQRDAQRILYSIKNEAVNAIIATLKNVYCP
UniProt P76243: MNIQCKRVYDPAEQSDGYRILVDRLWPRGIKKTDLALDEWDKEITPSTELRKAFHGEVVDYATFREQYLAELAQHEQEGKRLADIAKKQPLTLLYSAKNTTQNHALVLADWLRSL
UniProt P76561: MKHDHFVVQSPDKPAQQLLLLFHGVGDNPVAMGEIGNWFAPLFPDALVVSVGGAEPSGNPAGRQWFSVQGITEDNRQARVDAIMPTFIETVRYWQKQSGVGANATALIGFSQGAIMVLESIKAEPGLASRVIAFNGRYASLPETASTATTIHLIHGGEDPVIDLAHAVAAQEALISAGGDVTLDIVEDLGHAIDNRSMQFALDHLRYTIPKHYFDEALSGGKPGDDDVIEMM
UniProt P76549: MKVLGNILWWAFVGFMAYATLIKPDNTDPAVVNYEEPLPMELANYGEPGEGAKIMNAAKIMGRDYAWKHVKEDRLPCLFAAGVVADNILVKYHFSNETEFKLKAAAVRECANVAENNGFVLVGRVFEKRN
UniProt P76241: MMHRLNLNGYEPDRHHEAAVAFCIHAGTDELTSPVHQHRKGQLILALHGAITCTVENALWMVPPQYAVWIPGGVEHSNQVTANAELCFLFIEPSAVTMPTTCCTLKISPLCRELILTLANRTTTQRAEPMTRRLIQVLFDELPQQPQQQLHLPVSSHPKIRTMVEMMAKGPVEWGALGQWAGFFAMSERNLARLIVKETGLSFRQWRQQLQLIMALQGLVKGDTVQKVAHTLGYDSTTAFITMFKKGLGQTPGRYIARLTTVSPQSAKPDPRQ
UniProt P76558: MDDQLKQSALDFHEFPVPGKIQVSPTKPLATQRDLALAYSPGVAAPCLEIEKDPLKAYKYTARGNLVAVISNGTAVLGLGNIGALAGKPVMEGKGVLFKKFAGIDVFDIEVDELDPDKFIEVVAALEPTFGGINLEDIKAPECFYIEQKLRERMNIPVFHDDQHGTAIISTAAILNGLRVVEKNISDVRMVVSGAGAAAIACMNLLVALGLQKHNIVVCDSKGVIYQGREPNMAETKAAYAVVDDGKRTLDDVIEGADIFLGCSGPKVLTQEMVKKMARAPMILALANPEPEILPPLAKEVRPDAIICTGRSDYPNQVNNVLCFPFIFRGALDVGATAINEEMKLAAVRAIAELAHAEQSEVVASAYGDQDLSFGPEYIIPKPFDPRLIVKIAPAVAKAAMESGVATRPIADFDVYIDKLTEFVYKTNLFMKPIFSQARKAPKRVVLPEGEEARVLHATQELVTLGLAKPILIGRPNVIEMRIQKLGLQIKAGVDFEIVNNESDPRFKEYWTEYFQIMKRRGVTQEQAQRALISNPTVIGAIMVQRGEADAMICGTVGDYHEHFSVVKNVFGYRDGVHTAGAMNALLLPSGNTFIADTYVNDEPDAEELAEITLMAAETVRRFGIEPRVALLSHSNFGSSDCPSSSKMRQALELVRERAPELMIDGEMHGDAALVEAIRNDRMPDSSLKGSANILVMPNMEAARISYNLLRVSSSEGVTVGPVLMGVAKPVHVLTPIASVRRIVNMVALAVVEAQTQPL
UniProt P76361: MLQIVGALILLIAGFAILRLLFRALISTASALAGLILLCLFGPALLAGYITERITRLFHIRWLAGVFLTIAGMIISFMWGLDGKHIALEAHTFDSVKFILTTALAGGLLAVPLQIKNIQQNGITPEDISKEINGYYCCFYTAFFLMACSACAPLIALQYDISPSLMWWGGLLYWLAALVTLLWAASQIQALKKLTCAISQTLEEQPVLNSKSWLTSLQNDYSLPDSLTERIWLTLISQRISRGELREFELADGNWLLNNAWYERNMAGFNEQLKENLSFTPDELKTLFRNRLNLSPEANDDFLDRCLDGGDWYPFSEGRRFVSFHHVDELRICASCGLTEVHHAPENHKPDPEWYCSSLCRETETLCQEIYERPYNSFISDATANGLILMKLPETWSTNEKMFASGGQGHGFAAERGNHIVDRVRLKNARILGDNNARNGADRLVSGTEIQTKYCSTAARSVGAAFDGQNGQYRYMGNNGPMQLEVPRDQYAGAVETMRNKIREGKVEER
UniProt P77293: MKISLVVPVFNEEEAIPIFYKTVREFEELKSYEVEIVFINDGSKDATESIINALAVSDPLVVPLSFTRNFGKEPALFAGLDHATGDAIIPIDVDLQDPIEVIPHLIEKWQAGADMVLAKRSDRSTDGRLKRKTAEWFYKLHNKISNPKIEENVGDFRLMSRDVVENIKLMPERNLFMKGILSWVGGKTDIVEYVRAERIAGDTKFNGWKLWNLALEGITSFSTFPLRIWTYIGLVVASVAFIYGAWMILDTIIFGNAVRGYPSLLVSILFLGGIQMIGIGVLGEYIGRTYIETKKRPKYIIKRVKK
UniProt P76389: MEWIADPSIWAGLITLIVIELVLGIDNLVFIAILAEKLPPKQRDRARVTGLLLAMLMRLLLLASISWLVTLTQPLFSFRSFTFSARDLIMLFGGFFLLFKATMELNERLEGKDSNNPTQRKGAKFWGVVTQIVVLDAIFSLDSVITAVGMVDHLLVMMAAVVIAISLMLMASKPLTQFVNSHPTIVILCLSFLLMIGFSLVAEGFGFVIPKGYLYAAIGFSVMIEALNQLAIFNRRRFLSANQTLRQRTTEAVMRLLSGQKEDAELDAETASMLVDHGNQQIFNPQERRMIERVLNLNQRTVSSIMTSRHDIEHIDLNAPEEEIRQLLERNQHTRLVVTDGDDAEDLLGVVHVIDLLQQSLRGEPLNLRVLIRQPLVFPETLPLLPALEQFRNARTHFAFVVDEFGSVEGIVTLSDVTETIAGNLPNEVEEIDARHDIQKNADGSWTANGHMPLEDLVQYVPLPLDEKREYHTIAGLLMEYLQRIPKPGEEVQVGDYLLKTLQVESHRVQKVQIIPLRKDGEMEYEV
UniProt P76220: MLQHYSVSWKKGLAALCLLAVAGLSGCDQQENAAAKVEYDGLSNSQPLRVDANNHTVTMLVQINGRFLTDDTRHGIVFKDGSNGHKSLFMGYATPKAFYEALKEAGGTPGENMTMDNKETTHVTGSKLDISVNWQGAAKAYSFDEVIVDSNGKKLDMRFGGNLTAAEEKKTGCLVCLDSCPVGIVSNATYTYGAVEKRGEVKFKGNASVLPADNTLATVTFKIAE
UniProt P76575: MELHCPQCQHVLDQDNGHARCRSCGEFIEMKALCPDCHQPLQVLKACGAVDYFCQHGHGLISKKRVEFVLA
UniProt P77334: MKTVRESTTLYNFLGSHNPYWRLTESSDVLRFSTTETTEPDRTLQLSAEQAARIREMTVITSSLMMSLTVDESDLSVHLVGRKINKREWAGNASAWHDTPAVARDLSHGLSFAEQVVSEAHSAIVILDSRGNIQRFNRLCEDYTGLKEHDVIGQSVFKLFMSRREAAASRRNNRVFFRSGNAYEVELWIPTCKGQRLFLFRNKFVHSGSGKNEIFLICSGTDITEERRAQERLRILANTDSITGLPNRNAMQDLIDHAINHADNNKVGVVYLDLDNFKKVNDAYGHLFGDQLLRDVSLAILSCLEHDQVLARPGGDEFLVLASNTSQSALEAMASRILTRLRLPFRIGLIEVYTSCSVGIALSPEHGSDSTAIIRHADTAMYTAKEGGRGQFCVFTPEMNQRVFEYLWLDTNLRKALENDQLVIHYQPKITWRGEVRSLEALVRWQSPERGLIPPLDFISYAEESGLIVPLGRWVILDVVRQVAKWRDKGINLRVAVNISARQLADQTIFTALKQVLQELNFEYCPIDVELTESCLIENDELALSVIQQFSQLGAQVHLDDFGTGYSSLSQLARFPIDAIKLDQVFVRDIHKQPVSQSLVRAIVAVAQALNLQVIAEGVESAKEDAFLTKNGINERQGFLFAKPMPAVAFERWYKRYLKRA
UniProt P76346: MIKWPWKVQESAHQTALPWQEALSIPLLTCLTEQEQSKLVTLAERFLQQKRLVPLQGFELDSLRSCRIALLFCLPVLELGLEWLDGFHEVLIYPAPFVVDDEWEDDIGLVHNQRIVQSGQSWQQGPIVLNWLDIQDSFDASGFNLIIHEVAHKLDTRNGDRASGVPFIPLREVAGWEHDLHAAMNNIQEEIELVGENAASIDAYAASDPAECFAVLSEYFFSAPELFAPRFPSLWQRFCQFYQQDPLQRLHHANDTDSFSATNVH

What follows are targets tested with CC1(C)S[C@@H]2[C@H](NC(=O)[C@H](N)c3ccccc3)C(=O)N2[C@H]1C(=O)O [ampicillin] (assay: log2 fold change of tryptic peptide abundance, ligand vs vehicle (limited proteolysis) (log2 ratio); higher = more trypsin-susceptible (destabilized)). Conditions: ligand concentration: 10 uM; sample: E. coli crude lysate.

Target	log2 fold change
UniProt P76076 (peptide sequence: LVADINAER, peptide start residue: 53)	0.296
UniProt P76545 (peptide sequence: YLDFAEDREHAESVATK, peptide start residue: 7)	-0.423
UniProt P77622 (peptide sequence: TTEHVHAINGIDLQIR, peptide start residue: 25)	-0.557
UniProt P77510 (peptide sequence: IFEQGVSTR, peptide start residue: 488)	0.366
UniProt P76193 (peptide sequence: LVDKALYR, peptide start residue: 287)	-0.199
UniProt P77526 (peptide sequence: SRPATGQALLK, peptide start residue: 195)	-0.34
UniProt P76062 (peptide sequence: AIEQAINK, peptide start residue: 10)	-0.295
UniProt P76251 (peptide sequence: EFDQYVNLRPVR, peptide start residue: 99)	-0.105
UniProt P76586 (peptide sequence: YGCLETVASLSALKK, peptide start residue: 255)	0.733
UniProt P77335 (peptide sequence: SSYFQSQVDK, peptide start residue: 163)	-0.147
UniProt P76406 (peptide sequence: MQIVELK, peptide start residue: 81)	1.71
UniProt P76254 (peptide sequence: FLHQQVK, peptide start residue: 86)	0.174
UniProt P76073 (peptide sequence: WFPAQLPEVR, peptide start residue: 9)	-0.946
UniProt P77295 (peptide sequence: ITGLSASATSQHLAR, peptide start residue: 47)	-0.0661
UniProt P76243 (peptide sequence: KAFHGEVVDYATFR, peptide start residue: 52)	0.157
UniProt P77148 (peptide sequence: QRDPFDWAEK, peptide start residue: 323)	0.403
UniProt P76561 (peptide sequence: QWFSVQGITEDNRQAR, peptide start residue: 64)	-0.164
UniProt P77218 (peptide sequence: APASPLQGK, peptide start residue: 253)	-0.303
UniProt P77569 (peptide sequence: QIEEGVESQAILVAGRR, peptide start residue: 255)	0.957

Target	log2 fold change
UniProt P77390 (peptide sequence: VKRSENK, peptide start residue: 10)	-0.428
UniProt P76549 (peptide sequence: YHFSNETEFK, peptide start residue: 92)	0.114
UniProt P77522 (peptide sequence: RALCEGENSK, peptide start residue: 304)	-0.484
UniProt P76241 (peptide sequence: LTTVSPQSAKPDPR, peptide start residue: 259)	-0.391
UniProt P75992 (peptide sequence: DLIDSIIR, peptide start residue: 51)	-0.0851
UniProt P76272 (peptide sequence: ANAFDIDLHIKPEYR, peptide start residue: 550)	-0.158
UniProt P76558 (peptide sequence: FKEYWTEYFQIMK, peptide start residue: 507)	0.27
UniProt P76361 (peptide sequence: ILGDNNAR, peptide start residue: 431)	-0.271
UniProt P77293 (peptide sequence: ISNPKIEENVGDFR, peptide start residue: 144)	-0.407
UniProt P77258 (peptide sequence: IFMAPLTR, peptide start residue: 21)	-0.284
UniProt P76389 (peptide sequence: ATMELNER, peptide start residue: 101)	-0.179
UniProt P77544 (peptide sequence: KAPLTAEGK, peptide start residue: 131)	0.186
UniProt P76220 (peptide sequence: FGGNLTAAEEK, peptide start residue: 159)	-0.0272
UniProt P77359 (peptide sequence: SMVDAQGQPLK, peptide start residue: 313)	0.351
UniProt P76575 (peptide sequence: KRVEFVLA, peptide start residue: 64)	-0.137
UniProt P77334 (peptide sequence: TLQLSAEQAAR, peptide start residue: 43)	-0.942
UniProt P76633 (peptide sequence: VLDHIPANR, peptide start residue: 217)	-0.427
UniProt P76346 (peptide sequence: RLVPLQGFELDSLR, peptide start residue: 51)	-0.21

Copied from the list:
Value of UniProt P76558 (peptide sequence: FKEYWTEYFQIMK, peptide start residue: 507) under log2 fold change: 0.27
Value of UniProt P76243 (peptide sequence: KAFHGEVVDYATFR, peptide start residue: 52) under log2 fold change: 0.157
